# Primary screen of a compound library

Protein sequences, listed by entry. Tags and fused reporters are not part of them. Residues count along the entry.
UniProt A4I591, 1-473: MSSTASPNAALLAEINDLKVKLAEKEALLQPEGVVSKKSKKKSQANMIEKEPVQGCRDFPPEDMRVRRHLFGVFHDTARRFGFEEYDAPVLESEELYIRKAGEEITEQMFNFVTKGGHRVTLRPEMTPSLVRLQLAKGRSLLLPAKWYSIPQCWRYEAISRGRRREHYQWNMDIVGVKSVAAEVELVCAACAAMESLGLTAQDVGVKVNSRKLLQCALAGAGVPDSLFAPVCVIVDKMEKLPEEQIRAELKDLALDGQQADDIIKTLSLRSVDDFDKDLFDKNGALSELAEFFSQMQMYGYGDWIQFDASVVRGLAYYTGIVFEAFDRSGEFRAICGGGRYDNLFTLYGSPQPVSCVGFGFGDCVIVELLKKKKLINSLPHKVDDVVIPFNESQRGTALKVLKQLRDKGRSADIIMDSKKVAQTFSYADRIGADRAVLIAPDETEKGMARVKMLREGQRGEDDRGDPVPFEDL
UniProt P9WNZ1, whole entry: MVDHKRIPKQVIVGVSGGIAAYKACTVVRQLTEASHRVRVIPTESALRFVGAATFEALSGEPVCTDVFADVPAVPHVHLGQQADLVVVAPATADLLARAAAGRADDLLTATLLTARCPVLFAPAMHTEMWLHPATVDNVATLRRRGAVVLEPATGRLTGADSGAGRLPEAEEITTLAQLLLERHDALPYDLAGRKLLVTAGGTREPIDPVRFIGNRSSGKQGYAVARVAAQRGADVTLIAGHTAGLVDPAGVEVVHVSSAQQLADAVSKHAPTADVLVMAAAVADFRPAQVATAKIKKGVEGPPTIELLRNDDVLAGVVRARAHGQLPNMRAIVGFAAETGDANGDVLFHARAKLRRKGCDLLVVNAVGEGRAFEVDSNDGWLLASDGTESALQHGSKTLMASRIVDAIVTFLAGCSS
UniProt P9WFT3, whole entry: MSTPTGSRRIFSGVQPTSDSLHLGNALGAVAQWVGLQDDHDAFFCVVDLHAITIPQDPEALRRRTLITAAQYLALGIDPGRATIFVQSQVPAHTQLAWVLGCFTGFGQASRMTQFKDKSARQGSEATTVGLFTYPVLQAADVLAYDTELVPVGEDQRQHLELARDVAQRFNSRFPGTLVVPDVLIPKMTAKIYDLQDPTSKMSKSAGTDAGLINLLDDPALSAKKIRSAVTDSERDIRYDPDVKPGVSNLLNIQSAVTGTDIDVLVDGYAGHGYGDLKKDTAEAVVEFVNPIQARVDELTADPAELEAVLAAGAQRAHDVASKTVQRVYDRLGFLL

Values are the deposited “Percent Effect”, in %. The controls that fix the scale are not given in the record; negative values are as filed. The compounds are a random part of those screened. A dash means the value is not listed here; it may have been measured.

A: 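Histidine-tRNA ligase, Leishmania infantum (UniProt A4I591). Enzyme assay of histidyl-tRNA synthetase; the read-out is not stated. Compounds at 30 µM. Higher reads as stronger inhibition (inferred: compounds with an IC50 in retests scored well above the rest). The assay is labelled LdHisRS but filed under L. infantum. Size under these conditions: about 69,000 compounds, about 410 of them at 50% or above in at least one test.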
B: 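Coenzyme A biosynthesis protein CoaBC, Mycobacterium tuberculosis (UniProt P9WNZ1). Enzyme assay of CoaBC with a phosphate dye (Biomol Green) read at 650 nm. Concentration: 30 µM. Direction is inferred from only a few compounds that gave an IC50; most scored high, so higher reads as stronger inhibition. Most strong results did not repeat in a second test. About 67,000 compounds were tested under these conditions; 0.06% (about 40) showed 50% or more at least once.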
C: 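Enzyme assay of tryptophanyl-tRNA synthetase; the read-out is not stated. Target: Tryptophan-tRNA ligase, Mycobacterium tuberculosis (UniProt P9WFT3). Tested at 10 µM. Higher most likely means stronger inhibition; the record gives no direction and few retests gave an IC50. Size under these conditions: about 65,000 compounds, about 64 of them at 50% or above in at least one test.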

Compound,A,B,C
CS(=O)(=O)N1CCN(C(=O)c2cc(-c3cccs3)cs2)CC1,23.46,3.571,1.528
O=C(NC1CC1)[C@@H]1C[C@@H]2CCN(Cc3ccccc3)C[C@@H]2O1,-7,-3.09,6.748
c1ccc(CCCN2CCN(c3ccc4nncn4n3)CC2)cc1,32.69,5.496,-3.046
CCN(CC1CCOC1)S(=O)(=O)Cc1cc(Cl)ccc1OC (centres undefined),1.571,4.348,1.445
Cn1cccc1C(=O)N1CCCC1c1ccc(CN2CCOCC2)cn1 (centres undefined),4.317,-7.177,0.7812
COCCN1CCCN(C(=O)NC(C)Cn2ccnc2)CC1 (centres undefined),12.5,3.162,4.622
O=C(c1ccncc1)N1CCCC1c1cccc(Br)c1 (centres undefined),-33.73,6.311,1.255
CCN(Cc1nnsc1Cl)C(C)c1ccc(C#N)cc1 (centres undefined),-0.8333,-,-0.2064
Cc1nc2n(n1)CC(NCC(=O)NCCCOC(C)C)CC2 (centres undefined),8.219,2.689,-1.341
CC(C)CN1C[C@H]2C[C@H](C(=O)NCc3cccnc3)[C@@H](C1)O2,0,-,-3.391
Cc1c(CCC(=O)N2CCCC2c2ccnc(N(C)C)c2)cnn1C (centres undefined),12.68,-1.188,1.019
CN(Cc1cccs1)C(=O)CN1CCCC1Cn1cncn1 (centres undefined),4.717,5,-1.243
O=C1CC(c2ccc(Cl)c(Cl)c2)c2c(n3ccsc3nc2=O)N1 (centres undefined),13.16,3.03,3.992
COCCNC(=O)c1ccnn1-c1ccc2ccccn12,-10.34,-,-4.639
Cc1cn2c(n1)CCC(NC(=O)c1cc(C(C)C)no1)C2 (centres undefined),13.33,-3.846,-3.675
CCCOCCn1ncc(N2CCc3ccccc3C2)cc1=O,16.53,0.1248,4.378
CCCC1(CO)CCCN(C(=O)CNC(N)=O)C1 (centres undefined),18.07,6.399,3.213
Cc1cnc(-c2cccc(-c3ccn(CCCO)n3)c2)nc1N(C)C,9.524,2.184,-0.576
CC(C)C(=O)N1CCc2c(CN(C)Cc3ccco3)cncc2C1,-27.78,-11.96,-3.635
COCCn1ccnc1C1CCCN(c2cc(OC)nc(N)n2)C1 (centres undefined),-24.71,1.777,-3.68
CC(C)C(=O)N1CCC([C@@H]2C[C@H](C(F)F)n3ncnc3N2)CC1,10.07,0.4785,17.32
N#Cc1ccc(CN2CCC(CN3CCOCC3)C2)cc1 (centres undefined),2.381,4.369,0.288
COCC1c2c(cnn2CC2CC2)CCN1Cc1ccc(C)o1 (centres undefined),15.28,-1.603,-5.408
CCn1cc(CN(C)S(=O)(=O)c2ccccc2)cn1,17.24,12.01,2.202
CC(C)n1nnc2c(sc3nc(N4CCOCC4)c4c(c32)CCC4)c1=O,-1.099,-0.4819,0.3236
O=C(c1ccc2cc[nH]c2c1)N1CCCN(Cc2cscn2)CC1,6.838,0.5362,1.306
Cc1ncc(S(C)(=O)=O)c(N2CCCCCC2)n1,0,-7.692,6.638
O=C(NCCO)c1coc(CN2CCN(c3ccccc3F)CC2)n1,22.58,-2.337,-4.897
O=C(Cn1cnc2cc3c(cc21)OCCCO3)NC1CCCCC1,10,-4.369,-5.708
CC(C)(O)CCc1ccc(C(=O)N2CCN(CC(F)(F)F)CC2)cc1,4.167,2.404,-3.995
Cc1ccc(CN2CCc3nnc(CN4CCCC4=O)n3CC2)s1,13.46,3.99,-6.105
CC(C)N1c2sc(-c3ccsc3)nc2CC1C(=O)NC1CCCC1 (centres undefined),34,10.86,2.745
CC(=O)N1CCS(=O)(=O)[C@@H]2CCN(CC(C)C)CC[C@@H]21,9.091,-0.7246,-6
COc1cccc(/C=C/CCN2CCCN(C(C)=O)CC2)c1,6.667,-1.914,-6.699
Cc1nccc(CNC(=O)N(CCCO)C2CCc3ccccc32)n1 (centres undefined),14.29,3.182,15.96
Cc1cc(C)c(CNC(=O)N2CCCC2c2cccn2C)c(=O)[nH]1 (centres undefined),43.24,5.744,-4.776
COCC1CN(C(=O)Nc2cc(-n3cccc3)ccc2F)CCO1 (centres undefined),13.16,5.305,-0.9336
CCn1cnnc1C1CCN(C(=O)c2ccnc(N(C)C)c2)CC1,4.494,-0.361,0.7337
COc1ccc(CN2CCn3c(CNS(C)(=O)=O)nnc3C2)cc1,3.008,0.7712,2.703
CCc1n[nH]c(C2CN(C(=O)CCCn3cccn3)CCO2)n1 (centres undefined),10.62,-1.722,-1.864
C1CCC(CO[C@@H]2CC[C@H]3[C@H]2OCCN3CC2CCOCC2)C1,19.75,1.408,4.37
COc1ccc(-c2n[nH]cc2CN(C)Cc2nnc(C)o2)c(F)c1,1.493,4.819,-0.09099
c1cnc(-c2nc(CN3CCCC3Cn3cncn3)cs2)nc1 (centres undefined),13.56,0,0.5731
CN(C)CC1CN(Cc2nc(-c3ccccn3)no2)CCO1 (centres undefined),12.73,3.316,8.442
Cc1ccc(CN(Cc2cccnc2)C2CC(C)(C)NC(C)(C)C2)s1,2.778,1.389,-0.7525
O=C(NC1CC2(CCN(CCO)CC2)c2ccccc21)c1ccno1 (centres undefined),13.79,-,3.776

The last 4 entries again:

{"compound": "c1cnc(-c2nc(CN3CCCC3Cn3cncn3)cs2)nc1", "stereo": "centres undefined", "A": 13.56, "B": 0, "C": 0.5731}
{"compound": "CN(C)CC1CN(Cc2nc(-c3ccccn3)no2)CCO1", "stereo": "centres undefined", "A": 12.73, "B": 3.316, "C": 8.442}
{"compound": "Cc1ccc(CN(Cc2cccnc2)C2CC(C)(C)NC(C)(C)C2)s1", "A": 2.778, "B": 1.389, "C": -0.7525}
{"compound": "O=C(NC1CC2(CCN(CCO)CC2)c2ccccc21)c1ccno1", "stereo": "centres undefined", "A": 13.79, "C": 3.776}

Data taken from ChEMBL document CHEMBL3988442, “University of Dundee, Small-Polar-MMV Screening Library” (2021).